Measurements: US20150126519A1, “ANTIBIOTIC COMPOUNDS AND COMPOSITIONS, AND METHODS FOR IDENTIFICATION THEREOF” (Fred Hutchinson Cancer Research Center, priority 2012, published 2015)
Some entries share one result that the patent states for a list of compounds.

Legend:
[1] = test system: RecF pathway; experiment: Hfr recombination by the RecF pathway (strain JC9387); settings: RecE and RecF pathways together
[2] = test system: E. coli strain V66 (recBCD+); experiment: Inhibition of growth of E. coli strain V66 (optical density, MIC); assay type: cell-based; settings: FIG. 16; all treated cultures; untreated control 1.4×10^9

Row | SMILES | factor of inhibition of recombination by the RecE or RecF pathways [1] | viable cells at the end of the incubation period [2]
1 | C=CCn1c(Sc2ncc([N+](=O)[O-])s2)n[nH]c1=O [Compound 15] | 6-13 | –
2 | CCn1cc(C(=O)O)c(=O)c2cc(F)c(N3CCNCC3)cc21 [norfloxacin, reference compound] | – | < 200 colony forming units per ml
